Measured data: PubChem BioAssay AID504808 (Drosophila RNAi Screening Center, 2011)
The deposit covers about 21,000 reagents; this is a random part of those with a known target gene and a result. In the full data, 18 (0.084%) got an active call. 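Raw counts without plate normalisation, one of two replicates; the ratio scores behind the calls were not deposited.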 Not given: the amount of reagent, the time to read-out.

Assay: 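Chromatin factors that keep E2F targets switched off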 (primary screen)
System: Drosophila S2 cells
Reagent: long dsRNA against Drosophila genes
Measurement: 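Firefly luciferase driven by E2F sites, normalised to Renilla luciferase on the same minimal promoter, measured by plate reader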
Scale: E2F firefly: higher = more E2F reporter activity; Renilla normaliser: higher = more normaliser reporter signal
Hit rule: 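a knock-down counted as active when the firefly/Renilla E2F signal rose above 50%, a threshold chosen arbitrarily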

no.	Target gene	dsRNA	E2F firefly, rep 1	Renilla normaliser, rep 1	Outcome
1	Polr1C	DRSC02719	99894	4236	inactive
2	CG34163	DRSC01219	1.47e5	7739	inactive
3	FucTC	DRSC20966	86961	2640	inactive
4	tej	DRSC07219	99934	4347	inactive
5	SCOT	DRSC08186	74014	3569	inactive
6	Cks30A	DRSC03292	88088	3610	inactive
7	atilla	DRSC02971	1.04e5	4822	inactive
8	sdt	DRSC17555	68185	1825	inactive
9	sdt	DRSC17556	93529	2462	inactive
10	sdt	DRSC17860	1.13e5	5880	inactive
11	sdt	DRSC17861	52971	3947	inactive
12	sdt	DRSC18022	1.07e5	5006	inactive
13	sdt	DRSC18025	27067	3008	inactive
14	sdt	DRSC18026	31385	3644	inactive
15	sdt	DRSC18027	56792	4395	inactive
16	sdt	DRSC18108	1.52e5	6912	inactive
17	Oga	DRSC15901	65811	3296	inactive
18	Rassf	DRSC15612	63304	3263	inactive
19	CG5938	DRSC15923	1885	932	inactive
20	CG4306	DRSC10409	1.55e5	8820	inactive

An excerpt from the list above, as a working copy:
no.	Target gene	dsRNA	E2F firefly, rep 1	Renilla normaliser, rep 1	Outcome
2	CG34163	DRSC01219	1.47e5	7739	inactive
3	FucTC	DRSC20966	86961	2640	inactive
4	tej	DRSC07219	99934	4347	inactive
5	SCOT	DRSC08186	74014	3569	inactive
6	Cks30A	DRSC03292	88088	3610	inactive

Continued:
no.	Target gene	dsRNA	E2F firefly, rep 1	Renilla normaliser, rep 1	Outcome
21	CG13325	DRSC06362	121	32	inactive
22	gry	DRSC08028	1.30e5	4259	inactive
23	gry	DRSC08518	79289	3021	inactive
24	rk	DRSC03602	97132	4326	inactive
25	Gk1	DRSC08533	78242	3427	inactive
26	Gk1	DRSC08534	1.05e5	4513	inactive
27	Ack-like	DRSC07500	2981	48	inactive
28	CG15357	DRSC00387	1.65e5	5538	inactive
29	CG14787	DRSC18606	94242	5453	inactive
30	Usp47	DRSC11313	83740	3315	inactive
31	CG3420	DRSC04995	97022	4262	inactive
32	TBC1D5	DRSC16421	81366	3778	inactive
33	Hn	DRSC11184	78444	3665	inactive
34	frtz	DRSC00512	1.75e5	5455	inactive
